In the supplement of paper PMC6078165:
Values are relative to the signal before dosing, not to a vehicle control; the signal also falls without drug.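 Fibroblast labels denote human fibroblasts, mainly primary ones from uterus (C12385, HUF), lung (H6013), bone (Hs27A), adrenal (HADF) and skin (WS1), plus mammary HMF and breast cancer-associated Hs343T. Cancer cells are basal-like or mesenchymal-like triple-negative breast cancer lines. A hit is a response shift exceeding 3x replicate standard deviation. The tissue of the other fibroblasts is not given here.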

System: MDAMB468
Experiment: relative JC-1 red fluorescence (viability) vs pre-drug, coculture with fibroblast (fraction); higher = more viable cancer cells
Procedure: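 JC-1 labelled TNBC cells cocultured 1:1 (1,500 cells each) with CellTrace Violet stained primary or stromal fibroblasts in 384-well plates in FluoroBrite medium, treated with one of 42 anticancer drugs at 0.1, 1, 10 or 100 uM. JC-1 red fluorescence (mitochondrial integrity in cancer cells only) was read by plate reader every 8 h for 72 h. Values are normalised to each well's pre-drug value. The stock of one drug was tenfold lower, so its dose labels may be too high.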

C#Cc1cccc(Nc2ncnc3cc(OCCOC)c(OCCOC)cc23)c1 [Erlotinib]
relative JC-1 red fluorescence
Details | 8 h | 16 h | 24 h | 32 h | 40 h | 48 h | 56 h | 64 h | 72 h
10 µM, coculture fibroblast: C12385 | 0.915 | 0.8662 | 0.8378 | 0.7842 | 0.761 | 0.74 | 0.708 | 0.676 | 0.6572
10 µM, coculture fibroblast: H6013 | 0.875 | 0.845 | 0.814 | 0.8344 | 0.808 | 0.832 | 0.812 | 0.805 | 0.781
10 µM, coculture fibroblast: H6019 | 0.854 | 0.833 | 0.827 | 0.786 | 0.741 | 0.731 | 0.694 | 0.666 | 0.655
10 µM, coculture fibroblast: H6076 | 0.923 | 0.938 | 0.9436 | 0.959 | 0.925 | 0.9256 | 0.8908 | 0.8843 | 0.9327
10 µM, coculture fibroblast: H6231 | 0.8421 | 0.9723 | 0.877 | 0.847 | 0.841 | 0.823 | 0.779 | 0.766 | 0.765
10 µM, coculture fibroblast: HADF | 0.888 | 0.876 | 0.841 | 0.862 | 0.809 | 0.802 | 0.773 | 0.755 | 0.73
10 µM, coculture fibroblast: HCFa | 0.8747 | 0.8338 | 0.7987 | 0.777 | 0.727 | 0.738 | 0.703 | 0.685 | 0.651
10 µM, coculture fibroblast: HCPF | 0.8775 | 0.964 | 0.948 | 0.929 | 0.906 | 0.889 | 0.847 | 0.847 | 0.8069
10 µM, coculture fibroblast: HHSteC | 0.898 | 0.895 | 0.877 | 0.883 | 0.85 | 0.856 | 0.8 | 0.781 | 0.749
10 µM, coculture fibroblast: HMF | 0.825 | 0.722 | 0.9768 | 0.952 | 0.93197 | 0.9269 | 0.876 | 0.871 | 0.837
10 µM, coculture fibroblast: HPFa | 0.9183 | 0.892 | 0.877 | 0.843 | 0.814 | 0.827 | 0.768 | 0.748 | 0.695
10 µM, coculture fibroblast: HUF | 0.9376 | 0.8911 | 0.857 | 0.808 | 0.77 | 0.734 | 0.694 | 0.6827 | 0.6543
10 µM, coculture fibroblast: Hs5 | 0.7405 | 0.823 | 0.9804 | 0.94 | 0.898 | 0.872 | 0.848 | 0.824 | 0.834
10 µM, coculture fibroblast: Hs27A | 0.866 | 0.8424 | 0.7881 | 0.8082 | 0.74 | 0.728 | 0.695 | 0.666 | 0.628
10 µM, coculture fibroblast: Hs343T | 0.858 | 0.872 | 0.911 | 0.883 | 0.855 | 0.846 | 0.799 | 0.791 | 0.767
10 µM, coculture fibroblast: WS1 | 0.913 | 0.8573 | 0.8352 | 0.799 | 0.765 | 0.735 | 0.711 | 0.672 | 0.658
100 µM, coculture fibroblast: C12385 | 0.968 | 0.848 | 0.89 | 0.85 | 0.939 | 0.807 | 0.931 | 0.925 | 0.923
100 µM, coculture fibroblast: H6013 | 0.93 | 0.955 | 0.937 | 0.801 | 0.89872 | 0.814 | 0.863 | 0.847 | 0.95
100 µM, coculture fibroblast: H6019 | 0.889 | 0.894 | 0.888 | 0.877 | 0.862 | 0.873 | 0.851 | 0.849 | 0.842
100 µM, coculture fibroblast: H6076 | 0.948 | 0.9329 | 0.881 | 0.884 | 0.92 | 0.932 | 0.927 | 0.934 | 0.832
100 µM, coculture fibroblast: H6231 | 0.873 | 0.955 | 0.909 | 0.911 | 0.875 | 0.874 | 0.84 | 0.838 | 0.845
100 µM, coculture fibroblast: HADF | 0.973 | 0.749 | 0.966 | 0.877 | 0.937 | 0.807 | 0.917 | 0.762 | 0.9
100 µM, coculture fibroblast: HCFa | 0.915 | 0.862 | 0.882 | 0.833 | 0.819 | 0.846 | 0.808 | 0.9173 | 0.803
100 µM, coculture fibroblast: HCPF | 0.932 | 0.901 | 0.941 | 0.886 | 0.963 | 0.9537 | 0.931 | 0.9339 | 0.934
100 µM, coculture fibroblast: HHSteC | 0.951 | 0.90519 | 0.792 | 0.821 | 0.841 | 0.853 | 0.832 | 0.8406 | 0.911
100 µM, coculture fibroblast: HMF | 0.932 | 0.862 | 0.979 | 0.958 | 0.889 | 0.886 | 0.8555 | 0.8493 | 0.8527
100 µM, coculture fibroblast: HPFa | 0.9467 | 0.9648 | 0.94 | 0.914 | 0.896 | 0.913 | 0.858 | 0.856 | 0.785
100 µM, coculture fibroblast: HUF | 0.94374 | 0.889 | 0.871 | 0.839 | 0.807 | 0.785 | 0.753 | 0.738 | 0.728
100 µM, coculture fibroblast: Hs5 | 0.865 | 0.981 | 0.966 | 0.96 | 0.928 | 0.91 | 0.902 | 0.894 | 0.925
100 µM, coculture fibroblast: Hs27A | 0.9062 | 0.947 | 0.885 | 0.901 | 0.8557 | 0.8634 | 0.829 | 0.818 | 0.787
100 µM, coculture fibroblast: Hs343T | 0.8917 | 0.96 | 0.9584 | 0.9308 | 0.864 | 0.856 | 0.8176 | 0.8038 | 0.7887
100 µM, coculture fibroblast: WS1 | 0.943 | 0.922 | 0.944 | 0.906 | 0.889 | 0.851 | 0.821 | 0.831 | 0.83
